In the supplement of paper PMC12823440, “Inhibitors supercharge kinase turnover through native proteolytic circuits” (Nature, 2025):
Counter-ions that a name gives are not always drawn. The list shows a part of the results. The calls rarely recur for the same compound in another form.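 Kinases were expressed as nanoluciferase fusions in K562 cells and luminescence was read every 4 h between 2 and 18 h as percent of control, DMSO set to 100% and a positive control to 0%. A time point counts as decreased when the signal drops significantly (2 sigma). The hit call is the authors' own, does not follow from the count of time points alone, and its rule is not shown.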

Chains of the proteins cited; added tags and fusions are not shown. Lines headed by an entry give the natural chain unless they say otherwise; changes in a name come on top.
UniProt Q01974, whole entry: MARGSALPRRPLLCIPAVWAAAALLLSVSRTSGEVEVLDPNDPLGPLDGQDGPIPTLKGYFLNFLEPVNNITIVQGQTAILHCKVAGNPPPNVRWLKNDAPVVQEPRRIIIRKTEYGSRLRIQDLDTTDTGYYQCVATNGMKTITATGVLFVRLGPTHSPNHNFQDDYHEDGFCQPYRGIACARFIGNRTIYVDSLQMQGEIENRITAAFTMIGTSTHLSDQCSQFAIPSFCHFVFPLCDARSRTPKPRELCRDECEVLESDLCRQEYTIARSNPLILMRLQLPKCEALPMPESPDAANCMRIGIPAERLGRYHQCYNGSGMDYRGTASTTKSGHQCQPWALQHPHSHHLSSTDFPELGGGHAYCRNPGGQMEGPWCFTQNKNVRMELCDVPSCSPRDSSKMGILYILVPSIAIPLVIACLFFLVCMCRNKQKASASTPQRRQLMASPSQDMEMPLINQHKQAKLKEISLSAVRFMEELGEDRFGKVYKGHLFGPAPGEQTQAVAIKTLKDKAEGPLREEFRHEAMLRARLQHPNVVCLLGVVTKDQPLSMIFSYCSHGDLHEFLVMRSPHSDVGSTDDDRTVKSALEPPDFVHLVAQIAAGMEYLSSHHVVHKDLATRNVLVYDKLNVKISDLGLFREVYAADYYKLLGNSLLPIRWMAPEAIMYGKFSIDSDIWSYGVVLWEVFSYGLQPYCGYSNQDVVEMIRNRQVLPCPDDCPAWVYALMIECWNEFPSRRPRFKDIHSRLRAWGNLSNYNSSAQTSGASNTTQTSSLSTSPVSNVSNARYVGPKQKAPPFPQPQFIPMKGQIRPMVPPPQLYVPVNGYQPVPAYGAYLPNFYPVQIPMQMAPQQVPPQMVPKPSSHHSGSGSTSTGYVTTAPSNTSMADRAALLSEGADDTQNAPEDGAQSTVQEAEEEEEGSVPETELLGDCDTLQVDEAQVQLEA
UniProt Q15418, whole entry: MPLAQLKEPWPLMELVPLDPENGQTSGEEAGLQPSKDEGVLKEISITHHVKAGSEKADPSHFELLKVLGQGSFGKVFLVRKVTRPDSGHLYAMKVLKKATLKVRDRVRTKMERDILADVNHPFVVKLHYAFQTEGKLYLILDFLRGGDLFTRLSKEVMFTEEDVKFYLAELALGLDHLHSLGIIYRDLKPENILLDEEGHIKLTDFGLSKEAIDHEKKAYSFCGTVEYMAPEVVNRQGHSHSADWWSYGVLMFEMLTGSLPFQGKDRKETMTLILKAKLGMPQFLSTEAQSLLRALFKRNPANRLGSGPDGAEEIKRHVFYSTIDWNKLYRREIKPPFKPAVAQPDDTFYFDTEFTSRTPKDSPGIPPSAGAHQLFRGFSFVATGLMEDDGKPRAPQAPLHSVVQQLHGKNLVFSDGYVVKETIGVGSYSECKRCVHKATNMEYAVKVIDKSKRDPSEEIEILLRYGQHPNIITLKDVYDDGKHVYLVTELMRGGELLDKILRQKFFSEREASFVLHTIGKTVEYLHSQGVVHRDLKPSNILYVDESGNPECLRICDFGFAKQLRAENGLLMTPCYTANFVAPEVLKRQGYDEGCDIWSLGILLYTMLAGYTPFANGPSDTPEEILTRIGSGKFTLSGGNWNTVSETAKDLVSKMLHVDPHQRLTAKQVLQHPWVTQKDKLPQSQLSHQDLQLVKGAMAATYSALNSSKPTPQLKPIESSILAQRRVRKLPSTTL
UniProt Q9NYA1, whole entry: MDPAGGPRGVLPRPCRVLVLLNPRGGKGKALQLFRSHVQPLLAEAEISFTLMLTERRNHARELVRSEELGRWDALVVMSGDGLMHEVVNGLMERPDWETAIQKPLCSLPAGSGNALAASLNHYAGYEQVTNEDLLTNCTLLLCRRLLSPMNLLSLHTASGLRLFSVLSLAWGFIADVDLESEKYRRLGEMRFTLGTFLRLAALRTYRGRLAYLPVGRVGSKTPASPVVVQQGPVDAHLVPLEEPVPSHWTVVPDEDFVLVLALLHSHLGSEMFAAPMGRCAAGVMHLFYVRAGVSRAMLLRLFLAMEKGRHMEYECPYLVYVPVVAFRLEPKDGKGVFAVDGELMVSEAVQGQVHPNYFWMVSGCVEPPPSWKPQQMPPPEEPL
UniProt Q9Y6E0: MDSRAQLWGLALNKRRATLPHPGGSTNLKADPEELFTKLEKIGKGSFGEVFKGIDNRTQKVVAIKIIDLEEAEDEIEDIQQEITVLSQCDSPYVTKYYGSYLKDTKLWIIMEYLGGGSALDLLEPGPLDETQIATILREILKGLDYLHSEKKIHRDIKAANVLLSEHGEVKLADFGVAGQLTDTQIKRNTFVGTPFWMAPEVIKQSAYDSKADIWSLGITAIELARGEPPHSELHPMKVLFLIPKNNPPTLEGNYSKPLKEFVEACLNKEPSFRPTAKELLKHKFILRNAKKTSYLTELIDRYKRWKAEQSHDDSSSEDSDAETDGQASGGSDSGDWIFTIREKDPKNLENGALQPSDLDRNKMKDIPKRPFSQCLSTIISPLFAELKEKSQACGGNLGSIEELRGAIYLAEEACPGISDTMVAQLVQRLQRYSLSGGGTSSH
UniProt Q15208: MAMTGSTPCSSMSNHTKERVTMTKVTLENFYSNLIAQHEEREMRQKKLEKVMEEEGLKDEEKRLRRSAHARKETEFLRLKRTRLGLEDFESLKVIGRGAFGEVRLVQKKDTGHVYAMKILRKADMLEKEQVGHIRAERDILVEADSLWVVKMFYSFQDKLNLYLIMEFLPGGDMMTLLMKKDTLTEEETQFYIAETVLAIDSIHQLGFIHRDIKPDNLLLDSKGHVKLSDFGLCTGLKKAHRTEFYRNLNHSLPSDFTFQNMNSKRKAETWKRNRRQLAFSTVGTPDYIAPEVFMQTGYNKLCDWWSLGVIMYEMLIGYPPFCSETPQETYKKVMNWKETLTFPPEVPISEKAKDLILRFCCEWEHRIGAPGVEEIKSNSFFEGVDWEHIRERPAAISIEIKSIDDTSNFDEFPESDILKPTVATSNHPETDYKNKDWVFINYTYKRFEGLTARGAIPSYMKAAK
UniProt P42680: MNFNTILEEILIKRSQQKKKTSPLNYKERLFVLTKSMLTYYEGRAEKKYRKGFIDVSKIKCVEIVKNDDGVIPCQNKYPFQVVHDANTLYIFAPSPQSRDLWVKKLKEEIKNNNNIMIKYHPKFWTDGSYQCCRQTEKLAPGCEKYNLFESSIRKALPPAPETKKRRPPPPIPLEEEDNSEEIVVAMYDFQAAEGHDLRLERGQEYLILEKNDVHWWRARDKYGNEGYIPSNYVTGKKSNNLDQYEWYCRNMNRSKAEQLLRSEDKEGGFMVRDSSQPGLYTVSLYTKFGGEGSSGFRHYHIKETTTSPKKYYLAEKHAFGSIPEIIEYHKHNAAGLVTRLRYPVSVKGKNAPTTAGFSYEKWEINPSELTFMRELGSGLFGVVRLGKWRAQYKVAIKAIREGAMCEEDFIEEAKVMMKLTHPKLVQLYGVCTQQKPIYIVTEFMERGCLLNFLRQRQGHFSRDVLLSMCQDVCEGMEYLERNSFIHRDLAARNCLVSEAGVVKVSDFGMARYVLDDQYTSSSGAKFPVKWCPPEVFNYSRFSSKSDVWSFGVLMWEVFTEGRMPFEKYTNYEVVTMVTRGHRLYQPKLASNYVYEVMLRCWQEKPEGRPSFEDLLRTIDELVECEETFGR
UniProt P29597: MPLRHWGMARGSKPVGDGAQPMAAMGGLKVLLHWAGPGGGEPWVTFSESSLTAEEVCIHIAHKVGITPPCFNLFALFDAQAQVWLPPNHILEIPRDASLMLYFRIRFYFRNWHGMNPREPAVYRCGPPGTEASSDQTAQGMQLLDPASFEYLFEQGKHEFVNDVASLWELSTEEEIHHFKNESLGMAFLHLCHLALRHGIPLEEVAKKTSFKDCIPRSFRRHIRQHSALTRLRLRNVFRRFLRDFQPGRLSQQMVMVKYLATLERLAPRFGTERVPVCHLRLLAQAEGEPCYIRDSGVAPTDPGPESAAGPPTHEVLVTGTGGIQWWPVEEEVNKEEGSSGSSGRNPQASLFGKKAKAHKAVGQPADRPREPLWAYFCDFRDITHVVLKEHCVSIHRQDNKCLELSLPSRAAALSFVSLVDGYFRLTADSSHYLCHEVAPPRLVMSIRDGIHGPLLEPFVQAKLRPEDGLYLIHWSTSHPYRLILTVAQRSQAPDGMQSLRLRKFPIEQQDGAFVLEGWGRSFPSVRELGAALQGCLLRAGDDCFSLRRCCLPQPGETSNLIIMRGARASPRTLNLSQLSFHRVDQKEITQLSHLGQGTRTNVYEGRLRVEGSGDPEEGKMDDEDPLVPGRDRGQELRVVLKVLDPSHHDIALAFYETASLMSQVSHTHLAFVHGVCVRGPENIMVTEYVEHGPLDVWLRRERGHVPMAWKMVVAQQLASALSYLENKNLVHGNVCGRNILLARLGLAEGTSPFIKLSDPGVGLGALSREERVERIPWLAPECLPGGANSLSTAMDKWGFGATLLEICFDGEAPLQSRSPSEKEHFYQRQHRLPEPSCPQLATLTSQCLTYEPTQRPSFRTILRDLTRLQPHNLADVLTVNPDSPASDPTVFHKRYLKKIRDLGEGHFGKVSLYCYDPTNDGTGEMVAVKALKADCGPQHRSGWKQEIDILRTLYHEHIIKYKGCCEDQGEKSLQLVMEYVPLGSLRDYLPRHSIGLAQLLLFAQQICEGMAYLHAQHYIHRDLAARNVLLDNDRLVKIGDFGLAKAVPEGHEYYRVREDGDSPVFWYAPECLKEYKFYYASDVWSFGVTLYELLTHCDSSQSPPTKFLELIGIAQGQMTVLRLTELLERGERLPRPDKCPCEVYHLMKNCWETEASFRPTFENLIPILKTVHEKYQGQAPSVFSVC
UniProt Q6PHR2: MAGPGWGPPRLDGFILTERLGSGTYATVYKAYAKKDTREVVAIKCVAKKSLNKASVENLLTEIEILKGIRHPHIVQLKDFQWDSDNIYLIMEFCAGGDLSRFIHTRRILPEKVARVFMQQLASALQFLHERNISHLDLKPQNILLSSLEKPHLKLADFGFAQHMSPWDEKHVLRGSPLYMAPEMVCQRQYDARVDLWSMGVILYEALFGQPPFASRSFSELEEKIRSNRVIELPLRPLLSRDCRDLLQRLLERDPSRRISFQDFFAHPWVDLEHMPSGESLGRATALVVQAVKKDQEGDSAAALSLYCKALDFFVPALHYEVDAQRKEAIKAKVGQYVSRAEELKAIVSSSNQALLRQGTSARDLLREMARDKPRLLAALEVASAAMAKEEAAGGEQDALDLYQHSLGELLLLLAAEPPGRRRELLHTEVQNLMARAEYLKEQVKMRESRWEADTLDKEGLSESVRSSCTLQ

Assays:
Assay in all cases: number of time points (of 5) at which kinase-Nluc abundance scored as decreased, DMSO-normalised (count); higher = more persistent destabilization
Conditions in all cases: K562; 2-18 h
[1] = target: ROR2 (UniProt Q01974)
[2] = target: RPS6KA1 (UniProt Q15418)
[3] = target: SPHK1 (UniProt Q9NYA1)
[4] = target: SRC (UniProt P12931)
[5] = target: STK24 (UniProt Q9Y6E0)
[6] = target: STK38 (UniProt Q15208)
[7] = target: SYK (UniProt P43405)
[8] = target: TEC (UniProt P42680)
[9] = target: TYK2 (UniProt P29597)
[10] = target: ULK3 (UniProt Q6PHR2)

Measured: number of time points

N#C/C(=C\c1ccc[nH]1)c1ccc(Cl)c(Cl)c1 (2.5 µM)
0: all assays above

C[C@@H]1CC[C@]2(C(=O)O)CC[C@]3(C)C(=CC[C@@H]4[C@@]5(C)CC[C@H](O)[C@@](C)(CO)[C@@H]5CC[C@]43C)[C@@H]2[C@]1(C)O [Rotundic acid] (10 µM)
0: all assays above

Cc1cc(F)c(Nc2ncnc3cc(OCc4ccccc4)ccc23)cc1O (10 µM)
0: all assays above

Nc1n[nH]c(N)c1N=Nc1ccc(O)cc1 (10 µM)
0: all assays above

O=S(=O)(c1cccc2c(Cl)cccc12)N1CCCNCC1 (10 µM)
0: all assays above

COc1ncc2cc(C(=O)Nc3cc(C(=O)NCc4cccc(Cl)c4)ccc3Cl)c(=O)[nH]c2n1 (2.5 µM)
0: all assays above

O=C(Nc1cc(Cl)cc(Cl)c1)Nc1cc(Cl)cc(Cl)c1 (10 µM)
0: all assays above

CCCCNc1ncc2c(-c3ccc(CN4CCN(C)CC4)cc3)cn([C@H]3CC[C@H](O)CC3)c2n1 [UNC2025 (hydrochloride)] (2.5 µM)
4: [10]
0: all other assays above

O=C(NCc1cccc(O)c1)c1cc2cc(F)ccc2[nH]1 (10 µM)
0: all assays above

C[C@@H](N)COc1ccc(-c2cnc3ccc(N[C@H](C)c4cccc(F)c4)nn23)cc1 [Taletrectinib] (2.5 µM)
0: all assays above

OCCC#Cc1nc(-c2ccc(F)cc2)c(-c2ccncc2)n1CCCc1ccccc1 (2.5 µM)
0: all assays above

Cn1cc(-c2ccc3nnc(Sc4ccc5nn(C)cc5c4)n3n2)cn1 [c-Met inhibitor 1] (10 µM)
0: all assays above

CC(C)(C)c1ccc(C(=O)Nc2cn3cc(-n4ccnc4)ccc3n2)cc1 (10 µM)
0: all assays above

C[C@@H]1CN(CC(=O)Nc2ccc3c(c2)Cc2cccc(-c4cc(=O)cc(N5CCOCC5)o4)c2S3)C[C@H](C)O1 (2.5 µM)
0: all assays above

CCc1nc(C(N)=O)c(Nc2ccc(N3CCC(N4CCN(C)CC4)CC3)c(OC)c2)nc1NC1CCC(OC)CC1 (stereo not given) [EML4-ALK kinase inhibitor 1] (2.5 µM)
0: all assays above

COc1cc(OC)c(/C=C/S(=O)(=O)Cc2ccc(OC)c(NCC(=O)O)c2)c(OC)c1 [Rigosertib (sodium)] (10 µM)
1: [8]
0: all other assays above

CC(=O)Nc1nc(C)c(-c2ccc(Cl)c(S(=O)(=O)NCCO)c2)s1 (10 µM)
0: all assays above

CS(=O)(=O)N1CCN(Cc2cn3cc(-c4cnc(N)nc4)nc(N4CCOCC4)c3n2)CC1 (10 µM)
3: [3]
0: all other assays above

CCOc1cc(C(=O)N2CCC(N3CCN(C)CC3)CC2)ccc1Nc1ncc2c(n1)N(S(C)(=O)=O)c1ccccc1C(=O)N2C (10 µM)
0: all assays above

C[C@@H]1O[C@@H](O[C@H]2[C@H](OC(=O)[C@]34CCC(C)(C)C[C@H]3C3=CC[C@@H]5[C@@]6(C)C[C@H](O)[C@H](O[C@@H]7O[C@H](CO)[C@@H](O)[C@H](O)[C@H]7O)C(CO)(CO)[C@@H]6CC[C@@]5(C)[C@]3(C)C[C@H]4O)OC[C@H](O)[C@@H]2O)[C@H](O)[C@H](O)[C@H]1O[C@@H]1OC[C@@H](O)[C@H](O[C@@H]2OC[C@](O)(CO)[C@H]2O)[C@H]1O [Platycodin D] (10 µM)
1: [10]
0: all other assays above

C1=N/C2=N/c3ccc(OCCN4CCCC4)c(c3)COC/C=C/COCc3cccc(c3)C(=C1)N2 [Pacritinib] (2.5 µM)
0: all assays above

O=C1NC(=O)C(c2ccccc2[N+](=O)[O-])=C1Nc1ccc(O)c(Cl)c1 (10 µM)
0: all assays above

C[C@]1(O)C[C@@](N)(c2ccc(-c3nc4n(c3-c3ccccc3)COc3ccncc3-4)cc2)C1 [TAS-117 (hydrochloride)] (10 µM)
0: all assays above

Cn1cc(C2=C(c3c4n(c5ccccc35)CCC(CN)C4)C(=O)NC2=O)c2ccccc21 (stereo not given) [Bisindolylmaleimide X (hydrochloride)] (2.5 µM)
0: all assays above

O=C1c2c(O)cc(O)cc2O[C@H](c2cc(O)c(O)c(O)c2)[C@H]1O [Dihydromyricetin] (10 µM)
0: all assays above

O=C1C(=Cc2ccc(O)c(O)c2)Oc2ccccc21 (2.5 µM)
0: all assays above

CN(C/C=C/C(=O)Nc1ccc(C(=O)Nc2cccc(Nc3ncc(Cl)c(-c4c[nH]c5ccccc45)n3)c2)cc1)CCCNC(=O)NCCOCCOCCOCCNC(=O)CCCC[C@@H]1SC[C@@H]2NC(=O)N[C@@H]21 (2.5 µM)
3: [9]
1: [3]
0: all other assays above

NC(=O)c1ccc2nc(-c3ccc(C4(N)CCC4)cc3)c(-c3ccccc3)n2n1 (10 µM)
0: all assays above

C=CC(=O)N1CCN(c2nc(OC[C@@H]3CCCN3C)nc3c2CCN(c2cccc4cccc(C)c24)C3)C[C@@H]1CC#N (2.5 µM)
0: all assays above

COC(=O)/C=C/c1ccc(O)c(OC)c1 [Ferulic acid methyl ester] (10 µM)
0: all assays above

C=C[C@H]1[C@H](O[C@@H]2O[C@H](CO)[C@@H](O)[C@H](O)[C@H]2O)OC=C(C(=O)OC)[C@H]1CCOC(=O)c1cc(O)c(O)c(O)c1 [Cornuside] (10 µM)
0: all assays above

CC[C@H](C)[C@H](NC(=O)[C@H](CCCCN)NC(=O)[C@H](CC(C)C)NC(=O)[C@@H]1CCCN1C(=O)[C@H](CCC(=O)O)NC(=O)[C@H](Cc1ccc(O)cc1)NC(=O)[C@@H](NC(=O)[C@H](CO)NC(=O)CNC(=O)[C@H](CO)NC(=O)[C@H](CCCN=C(N)N)NC(=O)[C@H](CCCCN)NC(=O)[C@@H](NC(=O)[C@@H](N)CCCN=C(N)N)[C@@H](C)O)C(C)C)C(=O)O [Malantide] (10 µM)
0: all assays above

CNC(=O)c1nnc(NC(=O)C2CC2)cc1Nc1cccc(-c2ncn(C)n2)c1OC [Deucravacitinib] (10 µM)
0: all assays above

O=c1ccc2cc(O)c(O)cc2o1 [Esculetin] (10 µM)
0: all assays above

CN1CCC(c2ccccc2CC(C)(C)Nc2nc(N3CCOCC3)nc(-n3c(S(C)(=O)=O)nc4ccccc43)n2)CC1 (10 µM)
0: all assays above
